# The supplement of paper PMC8728848
# Some of the results follow.
# Tests used:
# Experiment in all cases: glycan array binding signal (z-score within array); higher = stronger binding
# Conditions in all cases: glycan notation: IUPAC condensed, linker removed
# [1] = biological target: Gal(b1-4)GlcNAc(b1-3)Gal(b1-4)GlcNAc(b1-2)Man(a1-3)[Gal(b1-4)GlcNAc(b1-3)Gal(b1-4)GlcNAc(b1-2)Man(a1-6)]Man(b1-4)GlcNAc(b1-4)[Fuc(a1-6)]GlcNAc
# Method in brief: (§1)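 Glycan array data were curated from 3228 arrays in the Consortium for Functional Glycomics database and kept only where the protein sequence was available. Glycan names were converted to IUPAC-condensed notation, and columns mapping to the same glycan were averaged. The binding signal is a within-array Z-score, averaged across arrays of the same protein sequence at different concentrations or buffers and across linkers. Negative Z-scores can be read as non-binding.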
# [2] = biological target: Gal(b1-4)GlcNAc(b1-3)Gal(b1-4)GlcNAc(b1-2)[Gal(b1-4)GlcNAc(b1-3)Gal(b1-4)GlcNAc(b1-6)]Man(a1-6)[Gal(b1-4)GlcNAc(b1-3)Gal(b1-4)GlcNAc(b1-2)Man(a1-3)]Man(b1-4)GlcNAc(b1-4)GlcNAc
# Method in brief: as §1
# [3] = biological target: Gal(b1-4)GlcNAc(b1-3)Gal(b1-4)GlcNAc(b1-2)[Gal(b1-4)GlcNAc(b1-3)Gal(b1-4)GlcNAc(b1-6)]Man(a1-6)[Gal(b1-4)GlcNAc(b1-3)Gal(b1-4)GlcNAc(b1-2)Man(a1-3)]Man(b1-4)GlcNAc(b1-4)[Fuc(a1-6)]GlcNAc
# Method in brief: as §1
# [4] = biological target: Gal(b1-4)GlcNAc(b1-3)Gal(b1-4)GlcNAc(b1-3)Gal(b1-4)GlcNAc
# Method in brief: as §1
# [5] = biological target: Gal(b1-4)GlcNAc(b1-3)Gal(b1-4)GlcNAc(b1-3)Gal(b1-4)GlcNAc(b1-2)Man(a1-3)[Gal(b1-4)GlcNAc(b1-3)Gal(b1-4)GlcNAc(b1-3)Gal(b1-4)GlcNAc(b1-2)Man(a1-6)]Man(b1-4)GlcNAc(b1-4)GlcNAc
# Method in brief: as §1
# [6] = biological target: Gal(b1-4)GlcNAc(b1-3)Gal(b1-4)GlcNAc(b1-3)Gal(b1-4)GlcNAc(b1-2)Man(a1-3)[Gal(b1-4)GlcNAc(b1-3)Gal(b1-4)GlcNAc(b1-3)Gal(b1-4)GlcNAc(b1-2)Man(a1-6)]Man(b1-4)GlcNAc(b1-4)[Fuc(a1-6)]GlcNAc
# Method in brief: as §1
# [7] = biological target: Gal(b1-4)GlcNAc(b1-3)Gal(b1-4)GlcNAc(b1-3)Gal(b1-4)GlcNAc(b1-2)[Gal(b1-4)GlcNAc(b1-3)Gal(b1-4)GlcNAc(b1-3)Gal(b1-4)GlcNAc(b1-6)]Man(a1-6)[Gal(b1-4)GlcNAc(b1-3)Gal(b1-4)GlcNAc(b1-3)Gal(b1-4)GlcNAc(b1-2)Man(a1-3)]Man(b1-4)GlcNAc(b1-4)[Fuc(a1-6)]GlcNAc
# Method in brief: as §1
# [8] = biological target: Gal(b1-4)GlcNAc(b1-3)Gal(b1-4)GlcNAc(b1-3)Gal(b1-4)GlcNAc(b1-3)Gal(b1-4)GlcNAc(b1-2)Man(a1-3)[Gal(b1-4)GlcNAc(b1-3)Gal(b1-4)GlcNAc(b1-3)Gal(b1-4)GlcNAc(b1-3)Gal(b1-4)GlcNAc(b1-2)Man(a1-6)]Man(b1-4)GlcNAc(b1-4)GlcNAc
# Method in brief: as §1
# [9] = biological target: Gal(b1-4)GlcNAc(b1-3)Gal(b1-4)GlcNAc(b1-3)Gal(b1-4)GlcNAc(b1-3)Gal(b1-4)GlcNAc(b1-2)Man(a1-3)[Gal(b1-4)GlcNAc(b1-3)Gal(b1-4)GlcNAc(b1-3)Gal(b1-4)GlcNAc(b1-3)Gal(b1-4)GlcNAc(b1-2)Man(a1-6)]Man(b1-4)GlcNAc(b1-4)[Fuc(a1-6)]GlcNAc
# Method in brief: as §1
# [10] = biological target: Gal(b1-4)GlcNAc(b1-3)Gal(b1-4)GlcNAc(b1-3)Gal(b1-4)GlcNAc(b1-3)Gal(b1-4)GlcNAc(b1-2)[Gal(b1-4)GlcNAc(b1-3)Gal(b1-4)GlcNAc(b1-3)Gal(b1-4)GlcNAc(b1-3)Gal(b1-4)GlcNAc(b1-6)]Man(a1-6)[Gal(b1-4)GlcNAc(b1-3)Gal(b1-4)GlcNAc(b1-3)Gal(b1-4)GlcNAc(b1-3)Gal(b1-4)GlcNAc(b1-2)Man(a1-3)]Man(b1-4)GlcNAc(b1-4)[Fuc(a1-6)]GlcNAc
# Method in brief: as §1
# [11] = biological target: Gal(b1-4)GlcNAc(b1-3)Gal(b1-4)GlcNAc(b1-3)Gal(b1-4)GlcNAc(b1-3)Gal(b1-4)GlcNAc(b1-3)Gal(b1-4)GlcNAc(b1-2)Man(a1-3)[Gal(b1-4)GlcNAc(b1-3)Gal(b1-4)GlcNAc(b1-3)Gal(b1-4)GlcNAc(b1-3)Gal(b1-4)GlcNAc(b1-3)Gal(b1-4)GlcNAc(b1-2)Man(a1-6)]Man(b1-4)GlcNAc(b1-4)GlcNAc
# Method in brief: as §1
# [12] = biological target: Gal(b1-4)GlcNAc(b1-3)Gal(b1-4)GlcNAc(b1-3)Gal(b1-4)GlcNAc(b1-3)Gal(b1-4)GlcNAc(b1-3)Gal(b1-4)GlcNAc(b1-2)Man(a1-3)[Gal(b1-4)GlcNAc(b1-3)Gal(b1-4)GlcNAc(b1-3)Gal(b1-4)GlcNAc(b1-3)Gal(b1-4)GlcNAc(b1-3)Gal(b1-4)GlcNAc(b1-2)Man(a1-6)]Man(b1-4)GlcNAc(b1-4)[Fuc(a1-6)]GlcNAc
# Method in brief: as §1
# [13] = biological target: Gal(b1-4)GlcNAc(b1-3)Gal(b1-4)GlcNAc(b1-3)Gal(b1-4)GlcNAc(b1-3)Gal(b1-4)GlcNAc(b1-3)Gal(b1-4)GlcNAc(b1-2)[Gal(b1-4)GlcNAc(b1-3)Gal(b1-4)GlcNAc(b1-3)Gal(b1-4)GlcNAc(b1-3)Gal(b1-4)GlcNAc(b1-3)Gal(b1-4)GlcNAc(b1-6)]Man(a1-6)[Gal(b1-4)GlcNAc(b1-3)Gal(b1-4)GlcNAc(b1-3)Gal(b1-4)GlcNAc(b1-3)Gal(b1-4)GlcNAc(b1-3)Gal(b1-4)GlcNAc(b1-2)Man(a1-3)]Man(b1-4)GlcNAc(b1-4)[Fuc(a1-6)]GlcNAc
# Method in brief: as §1
# [14] = biological target: Gal(b1-4)GlcNAc(b1-3)Gal(b1-4)GlcNAc(b1-3)Gal(b1-4)GlcNAc(b1-3)Gal(b1-4)GlcNAc(b1-3)Gal(b1-4)GlcNAc(b1-3)Gal(b1-4)GlcNAc(b1-2)Man(a1-3)[Gal(b1-4)GlcNAc(b1-3)Gal(b1-4)GlcNAc(b1-3)Gal(b1-4)GlcNAc(b1-3)Gal(b1-4)GlcNAc(b1-3)Gal(b1-4)GlcNAc(b1-3)Gal(b1-4)GlcNAc(b1-2)Man(a1-6)]Man(b1-4)GlcNAc(b1-4)GlcNAc
# Method in brief: as §1
# [15] = biological target: Gal(b1-4)GlcNAc(b1-3)Gal(b1-4)GlcNAc(b1-3)GalNAc
# Method in brief: as §1
# [16] = biological target: Gal(b1-4)GlcNAc(b1-3)Gal(b1-4)GlcNAc(b1-3)[Gal(b1-4)GlcNAc(b1-3)Gal(b1-4)GlcNAc(b1-6)]GalNAc
# Method in brief: as §1
# [17] = biological target: Gal(b1-4)GlcNAc(b1-3)Gal(b1-4)GlcNAc(b1-6)[Gal(b1-3)]GalNAc
# Method in brief: as §1
# [18] = biological target: Gal(b1-4)GlcNAc(b1-3)Gal(b1-4)[Fuc(a1-3)]GlcNAc(b1-3)Gal(b1-4)[Fuc(a1-3)]GlcNAc
# Method in brief: as §1
# [19] = biological target: Gal(b1-4)GlcNAc(b1-3)GalNAc
# Method in brief: as §1
# [20] = biological target: Gal(b1-4)GlcNAc(b1-3)[Fuc(a1-3)GlcNAc(b1-6)]Gal(b1-4)Glc
# Method in brief: as §1
# [21] = biological target: Gal(b1-4)GlcNAc(b1-3)[Gal(b1-4)GlcNAc(b1-6)]Gal(b1-4)GlcNAc
# Method in brief: as §1
# [22] = biological target: Gal(b1-4)GlcNAc(b1-3)[GlcNAc(b1-6)]Gal(b1-4)GlcNAc
# Method in brief: as §1
# [23] = biological target: Gal(b1-4)GlcNAc(b1-6)Gal(b1-4)GlcNAc
# Method in brief: as §1
# [24] = biological target: Gal(b1-4)GlcNAc(b1-6)GalNAc
# Method in brief: as §1
# [25] = biological target: Gal(b1-4)GlcNAc(b1-6)[Gal(b1-3)]GalNAc
# Method in brief: as §1
# [26] = biological target: Gal(b1-4)GlcNAc(b1-6)[Gal(b1-4)GlcNAc(b1-3)]GalNAc
# Method in brief: as §1
# Gal(b1-4)GlcNAc6P = biological target: Gal(b1-4)GlcNAc6P
# Method in brief: as §1
# Gal(b1-6)Gal = biological target: Gal(b1-6)Gal
# Method in brief: as §1
# Gal3S(b1-3)GalNAc = biological target: Gal3S(b1-3)GalNAc
# Method in brief: as §1
# Gal3S(b1-3)GlcNAc = biological target: Gal3S(b1-3)GlcNAc
# Method in brief: as §1
# [27] = biological target: Gal3S(b1-3)[Fuc(a1-4)]GlcNAc
# Method in brief: as §1
# Gal3S(b1-4)Glc = biological target: Gal3S(b1-4)Glc
# Method in brief: as §1
# Gal3S(b1-4)Glc6S = biological target: Gal3S(b1-4)Glc6S
# Method in brief: as §1
# Gal3S(b1-4)GlcNAc = biological target: Gal3S(b1-4)GlcNAc
# Method in brief: as §1
# [28] = biological target: Gal3S(b1-4)[Fuc(a1-3)]Glc6S
# Method in brief: as §1
# [29] = biological target: Gal3S(b1-4)[Fuc(a1-3)]GlcNAc
# Method in brief: as §1
# [30] = biological target: Gal3S(b1-4)[Fuc(a1-3)]GlcNAc6S
# Method in brief: as §1
# Gal3S4S(b1-4)GlcNAc = biological target: Gal3S4S(b1-4)GlcNAc
# Method in brief: as §1
# Gal3S6S(b1-4)GlcNAc = biological target: Gal3S6S(b1-4)GlcNAc
# Method in brief: as §1
# Gal3S6S(b1-4)GlcNAc6S = biological target: Gal3S6S(b1-4)GlcNAc6S
# Method in brief: as §1
# Gal4S(b1-4)GlcNAc = biological target: Gal4S(b1-4)GlcNAc
# Method in brief: as §1
# Gal4S6S(b1-4)GlcNAc = biological target: Gal4S6S(b1-4)GlcNAc
# Method in brief: as §1
# Gal6P(b1-4)GlcNAc = biological target: Gal6P(b1-4)GlcNAc
# Method in brief: as §1
# Gal6S(b1-3)GlcNAc = biological target: Gal6S(b1-3)GlcNAc
# Method in brief: as §1
# Gal6S(b1-3)GlcNAc6S = biological target: Gal6S(b1-3)GlcNAc6S
# Method in brief: as §1
binder,measurement,setting,value
"pTFF2 (Sus scrofa), P01359 (protein) KPAACRCSRQDPKNRVNCGFPGITSDQCFTSGCCFDSQVPGVPWCFKPLPAQESEECVMEVSARKNCGYPGISPEDCAARNCCFSDTIPEVPWCFFPMSVEACHY",glycan array binding signal (z-score),[1],0.737
same,glycan array binding signal (z-score),[2],0.213
same,glycan array binding signal (z-score),[3],0.346
same,glycan array binding signal (z-score),[4],0.696
same,glycan array binding signal (z-score),[5],0.452
same,glycan array binding signal (z-score),[6],1.42
same,glycan array binding signal (z-score),[7],0.478
same,glycan array binding signal (z-score),[8],0.985
same,glycan array binding signal (z-score),[9],1.85
same,glycan array binding signal (z-score),[10],-0.245
same,glycan array binding signal (z-score),[11],2.48
same,glycan array binding signal (z-score),[12],2.62
same,glycan array binding signal (z-score),[13],-0.433
same,glycan array binding signal (z-score),[14],-0.498
same,glycan array binding signal (z-score),[15],-0.711
same,glycan array binding signal (z-score),[16],0.771
same,glycan array binding signal (z-score),[17],0.298
same,glycan array binding signal (z-score),[18],1.09
same,glycan array binding signal (z-score),[19],-0.029
same,glycan array binding signal (z-score),[20],-0.361
same,glycan array binding signal (z-score),[21],-0.434
same,glycan array binding signal (z-score),[22],-0.548
same,glycan array binding signal (z-score),[23],-1.25
same,glycan array binding signal (z-score),[24],-0.755
same,glycan array binding signal (z-score),[25],1.73
same,glycan array binding signal (z-score),[26],-0.34
same,glycan array binding signal (z-score),Gal(b1-4)GlcNAc6P,-0.191
same,glycan array binding signal (z-score),Gal(b1-6)Gal,0.252
same,glycan array binding signal (z-score),Gal3S(b1-3)GalNAc,0.185
same,glycan array binding signal (z-score),Gal3S(b1-3)GlcNAc,0.204
same,glycan array binding signal (z-score),[27],-0.013
same,glycan array binding signal (z-score),Gal3S(b1-4)Glc,-0.465
same,glycan array binding signal (z-score),Gal3S(b1-4)Glc6S,0.305
same,glycan array binding signal (z-score),Gal3S(b1-4)GlcNAc,-0.175
same,glycan array binding signal (z-score),[28],-0.105
same,glycan array binding signal (z-score),[29],-1.21
same,glycan array binding signal (z-score),[30],-0.755
same,glycan array binding signal (z-score),Gal3S4S(b1-4)GlcNAc,0.606
same,glycan array binding signal (z-score),Gal3S6S(b1-4)GlcNAc,-1.01
same,glycan array binding signal (z-score),Gal3S6S(b1-4)GlcNAc6S,1.86
same,glycan array binding signal (z-score),Gal4S(b1-4)GlcNAc,0.493
same,glycan array binding signal (z-score),Gal4S6S(b1-4)GlcNAc,-0.182
same,glycan array binding signal (z-score),Gal6P(b1-4)GlcNAc,0.214
same,glycan array binding signal (z-score),Gal6S(b1-3)GlcNAc,-2.99
same,glycan array binding signal (z-score),Gal6S(b1-3)GlcNAc6S,-1.65

# Reformatted as tab-separated lines: entries from further up.
binder	measurement	setting	value
pTFF2 (Sus scrofa), P01359 (protein) KPAACRCSRQDPKNRVNCGFPGITSDQCFTSGCCFDSQVPGVPWCFKPLPAQESEECVMEVSARKNCGYPGISPEDCAARNCCFSDTIPEVPWCFFPMSVEACHY	glycan array binding signal (z-score)	[13]	-0.433
same	glycan array binding signal (z-score)	[14]	-0.498
